# Test results published in the supplement of paper PMC8728848.
# The list shows a part of the results.
# Experiments:
# Assay in all cases: glycan array binding signal (z-score within array); higher = stronger binding
# Details in all cases: glycan notation: IUPAC condensed, linker removed
# [1] = target: GlcNAc(b1-3)Gal(b1-3)GalNAc
# How it was run: (§1)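 Arrays were curated from the Consortium for Functional Glycomics database, 3228 in total, and kept only where the protein sequence was available. Binding is expressed as a within-array Z-score. This score was averaged across arrays of the same protein sequence at different concentrations or buffers and across linkers, and negative values can be read as non-binding.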
# [2] = target: GlcNAc(b1-3)Gal(b1-4)Glc
# How it was run: as §1
# [3] = target: GlcNAc(b1-3)Gal(b1-4)GlcNAc
# How it was run: as §1
# [4] = target: GlcNAc(b1-3)Gal(b1-4)GlcNAc(b1-2)Man(a1-3)[GlcNAc(b1-3)Gal(b1-4)GlcNAc(b1-2)Man(a1-6)]Man(b1-4)GlcNAc(b1-4)GlcNAc
# How it was run: as §1
# [5] = target: GlcNAc(b1-3)Gal(b1-4)GlcNAc(b1-2)Man(a1-3)[GlcNAc(b1-3)Gal(b1-4)GlcNAc(b1-2)Man(a1-6)]Man(b1-4)GlcNAc(b1-4)[Fuc(a1-6)]GlcNAc
# How it was run: as §1
# [6] = target: GlcNAc(b1-3)Gal(b1-4)GlcNAc(b1-2)[GlcNAc(b1-3)Gal(b1-4)GlcNAc(b1-6)]Man(a1-6)[GlcNAc(b1-3)Gal(b1-4)GlcNAc(b1-2)Man(a1-3)]Man(b1-4)GlcNAc(b1-4)GlcNAc
# How it was run: as §1
# [7] = target: GlcNAc(b1-3)Gal(b1-4)GlcNAc(b1-3)Gal(b1-4)GlcNAc
# How it was run: as §1
# [8] = target: GlcNAc(b1-3)Gal(b1-4)GlcNAc(b1-3)Gal(b1-4)GlcNAc(b1-2)Man(a1-3)[GlcNAc(b1-3)Gal(b1-4)GlcNAc(b1-3)Gal(b1-4)GlcNAc(b1-2)Man(a1-6)]Man(b1-4)GlcNAc(b1-4)GlcNAc
# How it was run: as §1
# [9] = target: GlcNAc(b1-3)Gal(b1-4)GlcNAc(b1-3)Gal(b1-4)GlcNAc(b1-2)Man(a1-3)[GlcNAc(b1-3)Gal(b1-4)GlcNAc(b1-3)Gal(b1-4)GlcNAc(b1-2)Man(a1-6)]Man(b1-4)GlcNAc(b1-4)[Fuc(a1-6)]GlcNAc
# How it was run: as §1
# [10] = target: GlcNAc(b1-3)Gal(b1-4)GlcNAc(b1-3)Gal(b1-4)GlcNAc(b1-2)[GlcNAc(b1-3)Gal(b1-4)GlcNAc(b1-3)Gal(b1-4)GlcNAc(b1-6)]Man(a1-6)[GlcNAc(b1-3)Gal(b1-4)GlcNAc(b1-3)Gal(b1-4)GlcNAc(b1-2)Man(a1-3)]Man(b1-4)GlcNAc(b1-4)[Fuc(a1-6)]GlcNAc
# How it was run: as §1
# [11] = target: GlcNAc(b1-3)Gal(b1-4)GlcNAc(b1-3)Gal(b1-4)GlcNAc(b1-3)Gal(b1-4)GlcNAc(b1-2)Man(a1-3)[GlcNAc(b1-3)Gal(b1-4)GlcNAc(b1-3)Gal(b1-4)GlcNAc(b1-3)Gal(b1-4)GlcNAc(b1-2)Man(a1-6)]Man(b1-4)GlcNAc(b1-4)GlcNAc
# How it was run: as §1
# [12] = target: GlcNAc(b1-3)Gal(b1-4)GlcNAc(b1-3)Gal(b1-4)GlcNAc(b1-3)Gal(b1-4)GlcNAc(b1-2)Man(a1-3)[GlcNAc(b1-3)Gal(b1-4)GlcNAc(b1-3)Gal(b1-4)GlcNAc(b1-3)Gal(b1-4)GlcNAc(b1-2)Man(a1-6)]Man(b1-4)GlcNAc(b1-4)[Fuc(a1-6)]GlcNAc
# How it was run: as §1
# [13] = target: GlcNAc(b1-3)Gal(b1-4)GlcNAc(b1-3)Gal(b1-4)GlcNAc(b1-3)Gal(b1-4)GlcNAc(b1-2)[GlcNAc(b1-3)Gal(b1-4)GlcNAc(b1-3)Gal(b1-4)GlcNAc(b1-3)Gal(b1-4)GlcNAc(b1-6)]Man(a1-6)[GlcNAc(b1-3)Gal(b1-4)GlcNAc(b1-3)Gal(b1-4)GlcNAc(b1-3)Gal(b1-4)GlcNAc(b1-2)Man(a1-3)]Man(b1-4)GlcNAc(b1-4)[Fuc(a1-6)]GlcNAc
# How it was run: as §1
# [14] = target: GlcNAc(b1-3)Gal(b1-4)GlcNAc(b1-3)Gal(b1-4)GlcNAc(b1-3)Gal(b1-4)GlcNAc(b1-3)Gal(b1-4)GlcNAc(b1-2)Man(a1-3)[GlcNAc(b1-3)Gal(b1-4)GlcNAc(b1-3)Gal(b1-4)GlcNAc(b1-3)Gal(b1-4)GlcNAc(b1-3)Gal(b1-4)GlcNAc(b1-2)Man(a1-6)]Man(b1-4)GlcNAc(b1-4)GlcNAc
# How it was run: as §1
# [15] = target: GlcNAc(b1-3)Gal(b1-4)GlcNAc(b1-3)Gal(b1-4)GlcNAc(b1-3)Gal(b1-4)GlcNAc(b1-3)Gal(b1-4)GlcNAc(b1-2)Man(a1-3)[GlcNAc(b1-3)Gal(b1-4)GlcNAc(b1-3)Gal(b1-4)GlcNAc(b1-3)Gal(b1-4)GlcNAc(b1-3)Gal(b1-4)GlcNAc(b1-2)Man(a1-6)]Man(b1-4)GlcNAc(b1-4)[Fuc(a1-6)]GlcNAc
# How it was run: as §1
# [16] = target: GlcNAc(b1-3)Gal(b1-4)GlcNAc(b1-3)Gal(b1-4)GlcNAc(b1-3)Gal(b1-4)GlcNAc(b1-3)Gal(b1-4)GlcNAc(b1-2)[GlcNAc(b1-3)Gal(b1-4)GlcNAc(b1-3)Gal(b1-4)GlcNAc(b1-3)Gal(b1-4)GlcNAc(b1-3)Gal(b1-4)GlcNAc(b1-6)]Man(a1-6)[GlcNAc(b1-3)Gal(b1-4)GlcNAc(b1-3)Gal(b1-4)GlcNAc(b1-3)Gal(b1-4)GlcNAc(b1-3)Gal(b1-4)GlcNAc(b1-2)Man(a1-3)]Man(b1-4)GlcNAc(b1-4)[Fuc(a1-6)]GlcNAc
# How it was run: as §1
# [17] = target: GlcNAc(b1-3)Gal(b1-4)GlcNAc(b1-3)Gal(b1-4)GlcNAc(b1-3)GalNAc
# How it was run: as §1
# [18] = target: GlcNAc(b1-3)Gal(b1-4)GlcNAc(b1-3)GalNAc
# How it was run: as §1
# [19] = target: GlcNAc(b1-3)Gal(b1-4)GlcNAc(b1-3)[GlcNAc(b1-3)Gal(b1-4)GlcNAc(b1-3)]GalNAc
# How it was run: as §1
# [20] = target: GlcNAc(b1-3)Gal(b1-4)GlcNAc(b1-6)[Gal(b1-3)]GalNAc
# How it was run: as §1
# [21] = target: GlcNAc(b1-3)Gal(b1-4)GlcNAc(b1-6)[GlcNAc(b1-3)Gal(b1-3)]GalNAc
# How it was run: as §1
# [22] = target: GlcNAc(b1-3)Gal(b1-4)GlcNAc(b1-6)[GlcNAc(b1-3)]Gal(b1-4)GlcNAc
# How it was run: as §1
# [23] = target: GlcNAc(b1-3)GalNAc
# How it was run: as §1
# [24] = target: GlcNAc(b1-3)Man
# How it was run: as §1
# [25] = target: GlcNAc(b1-3)[GlcNAc(b1-4)][GlcNAc(b1-6)]GlcNAc
# How it was run: as §1
# [26] = target: GlcNAc(b1-3)[GlcNAc(b1-6)]Gal(b1-4)GlcNAc
# How it was run: as §1
# [27] = target: GlcNAc(b1-3)[GlcNAc(b1-6)]GalNAc
# How it was run: as §1
# [28] = target: GlcNAc(b1-4)Gal(b1-4)GlcNAc
# How it was run: as §1
# [29] = target: GlcNAc(b1-4)GlcNAc
# How it was run: as §1
# [30] = target: GlcNAc(b1-4)GlcNAc(b1-4)GlcNAc
# How it was run: as §1
# [31] = target: GlcNAc(b1-4)GlcNAc(b1-4)GlcNAc(b1-4)GlcNAc(b1-4)GlcNAc
# How it was run: as §1
# [32] = target: GlcNAc(b1-4)GlcNAc(b1-4)GlcNAc(b1-4)GlcNAc(b1-4)GlcNAc(b1-4)GlcNAc
# How it was run: as §1
# [33] = target: GlcNAc(b1-4)[GlcNAc(b1-6)]GalNAc
# How it was run: as §1
# [34] = target: GlcNAc(b1-6)Gal(b1-4)GlcNAc
# How it was run: as §1
# [35] = target: GlcNAc(b1-6)GalNAc
# How it was run: as §1
# [36] = target: GlcNAc6S(b1-3)Gal(b1-4)GlcNAc
# How it was run: as §1
# [37] = target: Kdn(a2-3)Gal(b1-3)GalNAc
# How it was run: as §1
binder,measurement,setting,value
Epa20 (Candida glabrata) (protein) MGSSHHHHHHSSGLVPRGSHMASSNIPNNYPLGCSNKYSGHLPGLKMELYSYNYVNPRHPDPQNPGKLDQLYDPNLLGTYECFDSSYKDINYPRVGYKSKTLIGRSDGVSGILNFNFVPPWGCMPQKGQLPPAYNFKSNITLSNFTMILFGYFKPKISGNHIFSLHGDDLIYLNFGAGNAFDCCRQESSADNFGNYQAFSLWGINWEKKTLTVYLDMNTYYPIRIFYNNRDYQAIFNFSFKTEFDSSPVIDFQDYFFFLRDIDGGCPGEV,glycan array binding signal (z-score),[1],-0.337
same,glycan array binding signal (z-score),[2],-0.229
same,glycan array binding signal (z-score),[3],-0.725
same,glycan array binding signal (z-score),[4],-0.752
same,glycan array binding signal (z-score),[5],0.394
same,glycan array binding signal (z-score),[6],0.885
same,glycan array binding signal (z-score),[7],-0.315
same,glycan array binding signal (z-score),[8],1.93
same,glycan array binding signal (z-score),[9],0.971
same,glycan array binding signal (z-score),[10],1.39
same,glycan array binding signal (z-score),[11],0.678
same,glycan array binding signal (z-score),[12],2.38
same,glycan array binding signal (z-score),[13],1.21
same,glycan array binding signal (z-score),[14],1.16
same,glycan array binding signal (z-score),[15],1.65
same,glycan array binding signal (z-score),[16],0.415
same,glycan array binding signal (z-score),[17],-0.311
same,glycan array binding signal (z-score),[18],0.586
same,glycan array binding signal (z-score),[19],0.532
same,glycan array binding signal (z-score),[20],0.596
same,glycan array binding signal (z-score),[21],0.241
same,glycan array binding signal (z-score),[22],-0.313
same,glycan array binding signal (z-score),[23],-0.544
same,glycan array binding signal (z-score),[24],0.181
same,glycan array binding signal (z-score),[25],1.23
same,glycan array binding signal (z-score),[26],-0.516
same,glycan array binding signal (z-score),[27],-0.405
same,glycan array binding signal (z-score),[28],-0.361
same,glycan array binding signal (z-score),[29],0.467
same,glycan array binding signal (z-score),[30],-0.575
same,glycan array binding signal (z-score),[31],0.463
same,glycan array binding signal (z-score),[32],0.618
same,glycan array binding signal (z-score),[33],-0.604
same,glycan array binding signal (z-score),[34],0.022
same,glycan array binding signal (z-score),[35],-0.147
same,glycan array binding signal (z-score),[36],-0.864
same,glycan array binding signal (z-score),[37],1.54

# An excerpt from the list above:
binder,measurement,setting,value
Epa20 (Candida glabrata) (protein) MGSSHHHHHHSSGLVPRGSHMASSNIPNNYPLGCSNKYSGHLPGLKMELYSYNYVNPRHPDPQNPGKLDQLYDPNLLGTYECFDSSYKDINYPRVGYKSKTLIGRSDGVSGILNFNFVPPWGCMPQKGQLPPAYNFKSNITLSNFTMILFGYFKPKISGNHIFSLHGDDLIYLNFGAGNAFDCCRQESSADNFGNYQAFSLWGINWEKKTLTVYLDMNTYYPIRIFYNNRDYQAIFNFSFKTEFDSSPVIDFQDYFFFLRDIDGGCPGEV,glycan array binding signal (z-score),[30],-0.575
same,glycan array binding signal (z-score),[31],0.463
